Experimental data as given in paper doi:10.1101/201277 (bioRxiv, 2017).
pKd: −log10 of the molar value. For some assays here: Protein sequences can lack the tags named with them. For some assays here: The exact form of at least one protein or probe is not confirmed. For some assays here: The comparison behind a weaker result is the experiment's own reference, which may not be listed here. For some assays here: At least one verdict rests on a figure or table, not on a statement of the authors.

Columns and labels:
[1] = target: T1, Cra (FruR) (Escherichia coli strain 3.300 (Hfr(PO1), lacI22)) (UniProt P0ACP1); test: BLI; conditions: residues 1-334
T1 sequence (looked up): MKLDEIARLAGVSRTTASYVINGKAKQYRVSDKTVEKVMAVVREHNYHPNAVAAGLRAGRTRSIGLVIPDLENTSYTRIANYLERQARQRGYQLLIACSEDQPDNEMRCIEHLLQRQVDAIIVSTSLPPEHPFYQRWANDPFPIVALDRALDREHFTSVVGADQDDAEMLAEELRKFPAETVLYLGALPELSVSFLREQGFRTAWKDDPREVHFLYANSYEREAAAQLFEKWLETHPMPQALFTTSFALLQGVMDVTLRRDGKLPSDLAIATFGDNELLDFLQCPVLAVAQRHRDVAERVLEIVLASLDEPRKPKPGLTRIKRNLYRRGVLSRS

[2] = system: Cra (FruR) + FruK (fructose-1-kinase, 1-phosphofructokinase); test: BLI
[3] = target: T1, Cra (FruR) (Escherichia coli strain 3.300 (Hfr(PO1), lacI22)); test: filter binding; conditions: 1 mM fructose-1-phosphate; residues 1-334

Row | Sequence | binding result ([1]; 1 mM F-1-P) | binding result ([1]; 10 mM F-1,6-BP) | binding result ([2]; 1 mM F-1-P) | binding result ([2]; 10 mM F-1,6-BP, signal increased) | pKd [3]
1 | ATGCATGTTGTGTGGCCTGAATCAATTCAGCTCACACAGGTGTCC (double strand) [pfkA operator (BLI)] | binds more weakly | binds more weakly | binds more weakly | binds | 
2 | ATGCATGTTGTGTGGGCTGAATCGCTTAACGTCACACAGGTGTCC (double strand) [aceB operator (BLI)] | binds more weakly | binds more weakly | binds more weakly |  | 
3 | ATGCATGTTGTGTGGTTCTTGAAACGTTTCAGCTCACACAGGTCC (double strand) [fruB proximal operator (BLI)] | binds more weakly | binds more weakly | binds more weakly |  | 
4 | TGTTGTGTGGGCTGAATCGCTTAACGTCACACAGG (double strand) [aceB operator (filter binding)] |  |  |  |  | < 7.00
